Test results published in PubChem BioAssay AID1794845 (National Center for Advancing Translational Sciences (NCATS), 2023).
Fewer than 10 of roughly 6,900 compounds were called active. The call rests on the fitted dose curve; in most records, active means well fitted curve in the direction sought with a large enough effect; inconclusive means small, poorly fitted or top-dose-only effect, or another doubt; inactive means no such curve, though single readings can be large or run the other way. This is one part of the list.

The chains behind the UniProt entries cited, without tags or fusion partners. Where a name states a change or a piece, a line headed by the entry shows the natural chain unless it says otherwise.
UniProt C7C422: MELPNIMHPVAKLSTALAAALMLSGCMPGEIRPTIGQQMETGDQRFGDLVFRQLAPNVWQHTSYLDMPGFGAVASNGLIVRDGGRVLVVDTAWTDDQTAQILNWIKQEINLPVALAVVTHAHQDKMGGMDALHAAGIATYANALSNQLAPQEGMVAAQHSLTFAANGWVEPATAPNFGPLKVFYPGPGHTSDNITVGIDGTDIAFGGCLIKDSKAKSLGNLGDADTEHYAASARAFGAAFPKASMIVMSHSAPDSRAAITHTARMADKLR

molecular target: Metallo-beta-lactamase type 2 (Klebsiella pneumoniae) (UniProt C7C422); experiment: qHTS to identify inhibitors of the New Delhi Metallo-beta-lactamase (NDM): primary screen against the NCATS Gemini Collection; conditions: NDM-1 enzyme, meropenem hydrolysis, absorbance 300 nm; at 38.4 µM (top of the series) unless noted; further: % of control where 0% means no effect
Procedure, shortened: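 Meropenem hydrolysis (50 uM final) by 2 nM NDM-1 read as 300 nm absorbance after 30 min, following >30 min compound–enzyme preincubation in HEPES pH 7.0 with 1 uM ZnSO4 and 0.01% Tween20.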

| Structure (SMILES) | activity % (negative = inhibition) |
| --- | --- |
| COc1ccc(CC(=O)N2CCc3nc(-c4cccnc4)[nH]c3C2)cc1 | inactive: 13.2% |
| C[C@@]12CO[C@@H](CNS(C)(=O)=O)O[C@@H]1CC[C@]1(C)[C@@H]2CC[C@@H](O)[C@H]1CC(=O)NCc1ccco1 | inactive: 0.912% |
| O=C(N[C@H](c1ccccn1)C1CC(O)C1)c1ccc2c(c1)ncn2CCO (some centres undefined) | inactive: 24.4% |
| Cc1ccccc1N(C)C1CN(Cc2ccc(C#N)cc2)C1 | inactive: 1.83% [at 57.5 µM] |
| CCc1cn(C[C@H](NC(=O)COC)C(=O)O)c(=O)[nH]c1=O | inactive: 14.7% [at 57.5 µM] |
| C=CCOc1cccc(-c2nc(C(=O)NCc3cccc(F)c3)cs2)c1 | inactive: 16.5% |
| O=C(NCC(F)F)C1CCCN1C(=O)c1cccc(-c2ccccn2)c1 (centres undefined) | inactive: 2.91% |
| Cc1cnc(-c2ccncc2)n1C1CCN(S(=O)(=O)c2cccc(F)c2)CC1 | inactive: 3.46% |
| Cc1noc(C)c1[S+](=O)([O-])N1CC(Oc2ccc(F)cc2F)C1 | inactive: 19.9% |
| O=C(CC1CCN(C(=O)Cc2ccccc2F)C1)NC1CC1 (centres undefined) | inactive: 0.139% |
| CC(C)NC(=O)c1ccccc1OCC1CCCN(Cc2cccnc2)C1 (centres undefined) | inactive: -3.05% |
| COc1ccc(S(=O)(=O)N2C[C@@H]3C[C@H](C2)c2ccc(NC(=O)c4ccc(C#N)cc4)c(=O)n2C3)cc1 | inactive: -1.04% |
| COc1ccc(CCNc2ncnc3c2CN(C2CCC2)C(=O)N(C)C3)cc1 | inactive: -0.66% |
| Cn1cccc1C(=O)NC1CCN(C(=O)N2CC3CC(C2)[C@H]2CCCC(=O)N2C3)CC1 (some centres undefined) | inactive: 28.9% |
| CS(=O)(=O)NC1CCN(c2cc(C3CC(N)C3)nc(N)n2)CC1 (centres undefined) | inactive: 0.85% |
| CCCCN1C(=O)c2ccccc2C(C(=O)Nc2nncs2)C12CCCC2 (centres undefined) | inactive: -4.02% |
| Cc1noc(-c2cccn3c(CNC(=O)c4ccccc4C)nnc23)n1 | inactive: 14.2% |
| COc1ccccc1CCC(=O)N1CC(F)(F)C[C@H]1c1nnc(C)o1 | inactive: -7.89% |
| O=C(Nc1ccc(F)cc1)N[C@H]1[C@H](O)[C@@H](N2CCCC2)[C@@H]2OC[C@H]1O2 | inactive: -15.5% [at 57.5 µM] |
| Cc1ccc(C(=O)N2CCCC(n3c(C)cnc3C3CCOCC3)C2)s1 (centres undefined) | inactive: 7.31% |
| Cc1nc(CN2C(=O)OC3(CCN(C(=O)Cc4ccc(O)cc4)CC3)C2(C)c2ccccc2)cs1 (centres undefined) | inactive: -0.943% |

Among those listed so far, two contain a cyano group:

| Structure (SMILES) | activity % (negative = inhibition) |
| --- | --- |
| Cc1ccccc1N(C)C1CN(Cc2ccc(C#N)cc2)C1 | inactive: 1.83% [at 57.5 µM] |
| COc1ccc(S(=O)(=O)N2C[C@@H]3C[C@H](C2)c2ccc(NC(=O)c4ccc(C#N)cc4)c(=O)n2C3)cc1 | inactive: -1.04% |

Continued:

| Structure (SMILES) | activity % (negative = inhibition) |
| --- | --- |
| CCNC(=O)N1CC[C@H]2CC(=O)N(Cc3cccnc3)CC[C@H]2C1 | inactive: -3.04% [at 57.5 µM] |
| Cn1cnc(C(=O)N2CC(F)(F)C[C@H]2c2nc(C3CC3)no2)c1 | inactive: 1.12% |
| CNC(=O)c1cc(-c2cnc(OC)nc2)cc2c1OCCN2Cc1cccnc1 | inactive: -3.27% [at 57.5 µM] |
| CCCN(CC1CCOC1)C(=O)Nc1ccc(Cl)cc1 (centres undefined) | inactive: 20.5% |
| COCCn1c(C(=O)OC)c(NC(=O)CC(C)C)c2cc(NC(C)CCn3cccn3)cnc21 (centres undefined) | inactive: -2.25% |
| O=C(c1cccs1)N1CCC(N(C(=O)NCCc2ccccc2)C2CCOCC2)CC1 | inactive: 2.28% |
| CC(=O)N1CCC(N2C[C@@H]3C[C@H](C2)c2ccc(-c4ccccc4CN(C)C)c(=O)n2C3)CC1 | inactive: 10.5% |
| O=C1[C@H]2CN(Cc3ccncc3)C[C@H]2C(=O)N1Cc1ccc2c(c1)OCO2 | inactive: 1.15% |
| O=C(O)c1ccc2c(c1)N(C(=O)c1ccc(F)cc1)CC2 | inactive: 2.63% |
| C[C@H]1[C@@H]2[C@@H](O)C([C@H](C)C(=O)NCc3cccnc3)CC[C@@]2(C)CC[C@@H]1NC(=O)c1ccccn1 (some centres undefined) | inactive: 0.381% |
| C[C@@H]1CN(C[C@@H]2CN(C(=O)c3ccsc3)C[C@@H]2CO)C[C@H](C)O1 | inactive: -3.8% |
| CC(C)(C)CC(=O)N[C@H]1CO[C@H]2[C@@H]1OC[C@H]2OCC(N)=O | inactive: 15.4% [at 57.5 µM] |
| Cc1cn2nnc(C(=O)NC3CCC(C)CC3)c2c(=O)[nH]1 (centres undefined) | inactive: 20.7% |
| CCCN1CCC2(CCN([S+](=O)([O-])c3cccs3)CC2)Oc2ccccc21 | inactive: -2.6% |
| C=CCc1ccccc1OCCN(C)Cc1ccccc1C(=O)O | inactive: -0.36% |
| CNC(=O)c1cc2cc(-c3c(C)noc3C)nc(-c3cccc(OC)c3OC)c2o1 | inactive: 23.7% [at 57.5 µM] |
| O=C(NCCNC(=O)c1cccc(-c2ccsc2)c1)NC1CCCC1 | inactive: -3.26% |
| O=C1CCC2(CNC(=O)c3cccnc3)CCCC=C2N1 (centres undefined) | inactive: 2.98% |
| Cc1ccccc1C(=O)N1CCCN(c2ccc3nnc(-c4ccccc4)n3n2)CC1 | inactive: 2.8% |
| CC(C)CC(=O)N1CCN(c2nnc3ccc(C(F)(F)F)cn23)CC1 | inactive: 9.59% |
| COc1cc(CN2CCC(CO)(CN3CCCC3)CC2)ccc1F | inactive: -2.18% |

| Structure (SMILES) | activity % (negative = inhibition) |
| --- | --- |
| O=C(CC1CCN(C(=O)C2CCCCC2)C1)NCc1ccccc1 (centres undefined) | inactive: 0.861% |
| COc1cccc(CNC(=O)Nc2cccc(-c3ccc(N4CCCCC4)nn3)c2)c1 | inactive: 24.3% |
| COc1cccc(C(=O)N2CC3(Cc4ccccc4N(C(C)=O)C3)C2)c1 | inactive: 0.921% |
| CC(NC(=O)OCc1ccccc1)c1nc2cccnc2n1C1CCCCC1 (centres undefined) | inactive: 5.66% |
| O=C(Cn1c2c(c(=O)n1Cc1ccccc1)CCN(Cc1ccccc1)C2)NCc1cccc(Cl)c1 | inactive: 19.5% |
| COc1cccc(C(=O)NCC2CCCN(Cc3ccccn3)C2)c1OC (centres undefined) | inactive: 2.43% |
| COC(=O)c1cc2n(n1)CCCN(C(=O)c1cc(C)nc3ccc(C)cc13)C2 | inactive: 1.48% |
| CSc1ccc(-c2cccc(C(=O)NCC(=O)N3CCOCC3)c2)cc1 | inactive: 11.7% |
| O=C(CCn1ccn2nc3c(c2c1=O)CCCC3)NCc1ccc(F)c(Cl)c1 | inactive: 33.4% |
| Cc1ccc(C(=O)N2CC[C@H](N3CCN(C)CC3)[C@H](CCCO)C2)cc1C | inactive: -0.329% |
| Fc1ccccc1OCc1nc(C2CCCNC2)no1 (centres undefined) | inactive: 4.54% |
| CCN1CCN(C2(C(=O)NCCC3CCCCO3)Cc3ccccc3C2)CC1 (centres undefined) | inactive: 11.1% |
| Cc1ccc([C@@H]2CN(c3cc(N4CCC(O)CC4)ncn3)C[C@H]2N(C)C)cc1 | inactive: -0.759% |
| COCCN1CCCC1c1nc(C2CN(C(=O)c3ncccc3C)C2)no1 (centres undefined) | inactive: 9.05% |
| Cc1ccc(CNC(=O)N2CCCC3(CCC(=O)N(CC4CC4)C3)C2)cc1 (centres undefined) | inactive: -4.58% |
| O=C(NCCCN1CCc2ccccc2C1)C1CCCCC(=O)N1Cc1ccccc1 (centres undefined) | inactive: -1.46% |
| O=C(c1cc(F)ccc1F)N1CCC(Cc2noc(C3CC3)n2)C1 (centres undefined) | inactive: 5.13% |
| COc1ccc(NC(=O)N2Cc3[nH]cnc3C[C@H]2c2nc(-c3ccc(C(F)(F)F)cc3)no2)cc1 | inactive: 5.38% |
| COc1ccc(CC(=O)N[C@H](C)c2onc(C)c2C(=O)O)cc1 | inactive: 11.1% [at 57.5 µM] |
| O=c1n(CC2CC2)nc2n1CCN(S(=O)(=O)Cc1ccccc1)CC2 | inactive: -0.737% |
| CC[C@H]1CN(Cc2ccc(OC)cc2O)CC[C@H]1CC(=O)N1CCOCC1 | inactive: 104% [at 57.5 µM] |

| Structure (SMILES) | activity % (negative = inhibition) |
| --- | --- |
| CCOc1ccccc1CN1CCC2(CCN(C(=O)c3ccccc3C)CC2)Oc2ccccc21 | inactive: 10.8% |
| CSCC(=O)N[C@H]1CCN2C(=O)c3cc(-c4ccc(Cl)cc4)ccc3NC(=O)[C@H]12 | inactive: 10.8% [at 57.5 µM] |
| COC(=O)CNC(=O)c1cn2cc(-c3cccc(C(F)(F)F)c3)sc2n1 | inactive: 17.2% |
| N#Cc1cccc(C(=O)Nc2ccc([C@H]3OCC(=O)N(Cc4ccc(F)cc4)[C@@H]3CO)cc2)c1 | inactive: 5.95% |
| O=C1CCCCC(CNC(=O)c2ccc3ccccc3n2)N1 (centres undefined) | inactive: 5.48% |
| CN1CCCC1c1nc(C2CN(S(=O)(=O)Cc3ccccc3F)C2)no1 (centres undefined) | inactive: 7.58% |
| O=C(c1cc[nH]c1C1CCCNC1)N(Cc1ccc(F)cc1)Cc1cccnc1 (centres undefined) | inactive: 6.68% |
| CCOc1cc2c(cn1)NCCN(Cc1ccncc1Cl)C2 | inactive: 5.21% [at 57.5 µM] |
| Cc1nn(CC(=O)NC2CCCCC2)c(=O)c2nc(C(C)C)sc12 | inactive: 1.22% |
| OC[C@@H]1CN(Cc2ccc(F)cc2)C[C@H]1c1nc(-c2ccncc2)no1 | inactive: -0.725% |
| COc1ccc(CCC(=O)N2CCOCCNC(=O)CC2)cc1 | inactive: 6.59% |
| O=C(c1cc(-n2cccn2)ccc1Cl)N1CCn2nc(CO)cc2C1 | inactive: -2.11% |
| CC(=O)NC1CC2(CCN(C(=O)CCCNC(=O)OC(C)(C)C)CC2)Oc2ccccc21 (centres undefined) | inactive: 14.2% |
| Cc1nn2c(c1-c1ccccc1[S+](C)(=O)[O-])N(CCCc1ccccc1)CCC2 | inactive: 7.93% [at 57.5 µM] |
| O=C(CN1CC2CC(C1)[C@H]1CCCC(=O)N1C2)N1CCSCC1 (some centres undefined) | inactive: 0.707% |
| COC[C@H]1NC(=O)CC[C@H]1C(=O)N1CCN(c2cccc(C)c2)CC1 | inactive: 11% |
| CC(=O)N1CCC(N2CCOC[C@H]2c2ncc(-c3ccncc3)[nH]2)CC1 | inactive: 84.5% [at 57.5 µM] |
| Cc1cc(C[C@@H]2COC[C@@H]2NC(=O)C2CCN(C(=O)C3CC3)CC2)on1 | inactive: -0.984% |
| COC(=O)[C@H]1CCCN1C(=O)[C@@H]1C[C@H](NC(=O)NC(C)C)CN1C(=O)c1cccn1C | inactive: -7.66% [at 57.5 µM] |
| CN1CCN(c2ncnc3sc4c(c23)CCNC4)CC1 | inactive: 6.4% |
| CCCn1c(C)cnc1CC1CCN(S(=O)(=O)c2ccccc2)C1 (centres undefined) | inactive: -1.33% |
